In doi:10.1101/500736 one finds binding data, which are given here for two substances.

The chains behind the UniProt entries cited, without tags or fusion partners.
UniProt P17839: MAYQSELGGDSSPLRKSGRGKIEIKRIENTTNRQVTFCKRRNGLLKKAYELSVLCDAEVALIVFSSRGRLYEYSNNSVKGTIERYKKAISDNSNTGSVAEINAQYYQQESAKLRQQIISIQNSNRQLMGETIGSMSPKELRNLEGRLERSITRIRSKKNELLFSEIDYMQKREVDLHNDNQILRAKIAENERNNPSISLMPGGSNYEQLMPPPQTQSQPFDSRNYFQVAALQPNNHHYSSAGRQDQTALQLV
UniProt Q8W234: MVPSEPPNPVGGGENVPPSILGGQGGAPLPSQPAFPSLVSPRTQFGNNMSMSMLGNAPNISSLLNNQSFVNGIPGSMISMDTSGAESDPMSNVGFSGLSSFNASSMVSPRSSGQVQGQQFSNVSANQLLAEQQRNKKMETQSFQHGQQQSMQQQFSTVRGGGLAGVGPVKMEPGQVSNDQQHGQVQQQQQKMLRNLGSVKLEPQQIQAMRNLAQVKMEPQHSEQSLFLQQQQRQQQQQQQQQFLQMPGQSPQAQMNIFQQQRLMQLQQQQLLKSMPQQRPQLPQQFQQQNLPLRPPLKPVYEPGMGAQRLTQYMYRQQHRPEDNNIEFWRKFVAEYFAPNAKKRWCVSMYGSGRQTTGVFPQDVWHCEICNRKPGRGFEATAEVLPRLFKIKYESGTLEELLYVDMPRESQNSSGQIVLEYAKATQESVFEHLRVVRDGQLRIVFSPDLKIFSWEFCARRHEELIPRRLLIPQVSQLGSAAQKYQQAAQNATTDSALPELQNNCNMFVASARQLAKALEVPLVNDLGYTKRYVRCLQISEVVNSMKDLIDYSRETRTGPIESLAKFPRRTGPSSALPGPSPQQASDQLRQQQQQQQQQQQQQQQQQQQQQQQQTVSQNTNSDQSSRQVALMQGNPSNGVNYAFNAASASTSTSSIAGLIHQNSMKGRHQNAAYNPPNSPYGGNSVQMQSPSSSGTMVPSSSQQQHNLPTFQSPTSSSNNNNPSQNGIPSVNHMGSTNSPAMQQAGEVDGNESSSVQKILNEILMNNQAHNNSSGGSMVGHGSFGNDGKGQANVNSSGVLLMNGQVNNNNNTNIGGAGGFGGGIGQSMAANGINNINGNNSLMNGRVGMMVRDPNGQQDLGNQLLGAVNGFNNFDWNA

Results are given in words; binding and its absence hold for the method and conditions named. Some results given as binding are weak or reduced against the parent protein; the word gives no strength.

The target in test [1] is …3 (Arabidopsis thaliana) (UniProt O22456). Put plainly: two-hybrid.
In test [2] the target is T1, LUG (Arabidopsis thaliana) (UniProt Q9FUY2).
T1 sequence: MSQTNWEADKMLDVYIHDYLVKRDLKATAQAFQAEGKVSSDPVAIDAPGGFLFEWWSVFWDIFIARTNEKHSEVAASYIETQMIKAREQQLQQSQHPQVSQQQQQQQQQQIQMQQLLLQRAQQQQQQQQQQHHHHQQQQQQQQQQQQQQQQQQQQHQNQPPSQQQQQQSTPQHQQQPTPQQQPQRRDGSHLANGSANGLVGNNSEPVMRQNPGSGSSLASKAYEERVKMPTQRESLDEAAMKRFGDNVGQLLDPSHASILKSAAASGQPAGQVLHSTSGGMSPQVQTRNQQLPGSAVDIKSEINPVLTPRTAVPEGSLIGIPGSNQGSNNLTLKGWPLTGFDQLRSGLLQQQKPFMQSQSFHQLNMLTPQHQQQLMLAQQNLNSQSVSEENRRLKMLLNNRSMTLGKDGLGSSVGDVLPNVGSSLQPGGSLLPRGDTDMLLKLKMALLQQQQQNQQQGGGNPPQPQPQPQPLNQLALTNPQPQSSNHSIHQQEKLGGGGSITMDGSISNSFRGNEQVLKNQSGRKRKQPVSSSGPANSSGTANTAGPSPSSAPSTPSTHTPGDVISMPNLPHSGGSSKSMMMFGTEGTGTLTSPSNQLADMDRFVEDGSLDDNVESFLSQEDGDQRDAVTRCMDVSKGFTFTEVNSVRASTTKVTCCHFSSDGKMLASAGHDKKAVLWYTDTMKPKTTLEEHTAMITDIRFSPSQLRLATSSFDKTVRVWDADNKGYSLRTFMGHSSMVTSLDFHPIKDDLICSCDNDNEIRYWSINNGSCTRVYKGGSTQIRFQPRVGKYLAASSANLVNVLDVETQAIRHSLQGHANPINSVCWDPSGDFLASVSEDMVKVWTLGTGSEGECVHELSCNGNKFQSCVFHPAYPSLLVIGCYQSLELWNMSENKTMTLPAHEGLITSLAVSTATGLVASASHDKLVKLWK
Put plainly: two-hybrid.

Consider AG (from UniProt P17839 1-252), for which the binding entry in test [1] is “binds”. For the substance SEU (from UniProt Q8W234 1-877), the binding result in test [2] is “binds”.
